# Data published in the supplement of paper PMC8728848.
# The other results are listed elsewhere or left out.
# What was measured:
# Test in all cases: glycan array binding signal (z-score within array); higher = stronger binding
# Settings in all cases: glycan notation: IUPAC condensed, linker removed
# [1] = molecular target: Fuc(a1-2)[GalNAc(a1-3)]Gal(b1-3)GlcNAc(b1-3)GalNAc
# Outline: (§1)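 Columns mapping to the same glycan were averaged after glycan names were converted to IUPAC-condensed notation. The data come from 3228 arrays in the Consortium for Functional Glycomics database, limited to those with an available protein sequence. Binding is reported as a within-array Z-score averaged across arrays of one protein sequence and across linkers.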
# [2] = molecular target: Fuc(a1-2)[GalNAc(a1-3)]Gal(b1-3)GlcNAc(b1-6)GalNAc
# Outline: as §1
# [3] = molecular target: Fuc(a1-2)[GalNAc(a1-3)]Gal(b1-4)Glc
# Outline: as §1
# [4] = molecular target: Fuc(a1-2)[GalNAc(a1-3)]Gal(b1-4)GlcNAc
# Outline: as §1
# [5] = molecular target: Fuc(a1-2)[GalNAc(a1-3)]Gal(b1-4)GlcNAc(b1-2)Man
# Outline: as §1
# [6] = molecular target: Fuc(a1-2)[GalNAc(a1-3)]Gal(b1-4)GlcNAc(b1-2)Man(a1-3)[Fuc(a1-2)[GalNAc(a1-3)]Gal(b1-4)GlcNAc(b1-2)Man(a1-6)]Man(b1-4)GlcNAc(b1-4)GlcNAc
# Outline: as §1
# [7] = molecular target: Fuc(a1-2)[GalNAc(a1-3)]Gal(b1-4)GlcNAc(b1-2)Man(a1-3)[Fuc(a1-2)[GalNAc(a1-3)]Gal(b1-4)GlcNAc(b1-2)Man(a1-6)]Man(b1-4)GlcNAc(b1-4)[Fuc(a1-6)]GlcNAc
# Outline: as §1
# [8] = molecular target: Fuc(a1-2)[GalNAc(a1-3)]Gal(b1-4)GlcNAc(b1-3)Gal(b1-4)GlcNAc
# Outline: as §1
# [9] = molecular target: Fuc(a1-2)[GalNAc(a1-3)]Gal(b1-4)GlcNAc(b1-3)Gal(b1-4)GlcNAc(b1-3)Gal(b1-4)GlcNAc
# Outline: as §1
# [10] = molecular target: Fuc(a1-2)[GalNAc(a1-3)]Gal(b1-4)GlcNAc(b1-3)GalNAc
# Outline: as §1
# [11] = molecular target: Fuc(a1-2)[GalNAc(a1-3)]Gal(b1-4)GlcNAc(b1-3)[Fuc(a1-2)[GalNAc(a1-3)]Gal(b1-4)GlcNAc(b1-6)]GalNAc
# Outline: as §1
# [12] = molecular target: Fuc(a1-2)[GalNAc(a1-3)]Gal(b1-4)GlcNAc(b1-6)GalNAc
# Outline: as §1
# [13] = molecular target: Fuc(a1-2)[GalNAc(a1-3)]Gal(b1-4)[Fuc(a1-3)]GlcNAc
# Outline: as §1
# [14] = molecular target: Fuc(a1-2)[GalNAc(a1-3)]Gal(b1-4)[Fuc(a1-3)]GlcNAc(b1-3)GalNAc
# Outline: as §1
# [15] = molecular target: Fuc(a1-2)[GalNAc(a1-4)]Gal(b1-4)GlcNAc
# Outline: as §1
# [16] = molecular target: Fuc(a1-2)[GalNAc(b1-3)]Gal
# Outline: as §1
# [17] = molecular target: Fuc(a1-3)GlcNAc
# Outline: as §1
# [18] = molecular target: Fuc(a1-3)[Gal(b1-4)]Glc6S
# Outline: as §1
# [19] = molecular target: Fuc(a1-3)[Gal(b1-4)]GlcNAc
# Outline: as §1
# [20] = molecular target: Fuc(a1-3)[Gal(b1-4)]GlcNAc(b1-2)Man
# Outline: as §1
# [21] = molecular target: Fuc(a1-3)[Gal(b1-4)]GlcNAc(b1-2)Man(a1-3)[Fuc(a1-3)[Gal(b1-4)]GlcNAc(b1-2)Man(a1-6)]Man(b1-4)GlcNAc(b1-4)GlcNAc
# Outline: as §1
# [22] = molecular target: Fuc(a1-3)[Gal(b1-4)]GlcNAc(b1-2)Man(a1-3)[Fuc(a1-3)[Gal(b1-4)]GlcNAc(b1-2)Man(a1-6)]Man(b1-4)GlcNAc(b1-4)[Fuc(a1-6)]GlcNAc
# Outline: as §1
# [23] = molecular target: Fuc(a1-3)[Gal(b1-4)]GlcNAc(b1-3)Gal(b1-3)[Fuc(a1-4)]GlcNAc
# Outline: as §1
# [24] = molecular target: Fuc(a1-3)[Gal(b1-4)]GlcNAc(b1-3)Gal(b1-4)[Fuc(a1-3)]GlcNAc
# Outline: as §1
# [25] = molecular target: Fuc(a1-3)[Gal(b1-4)]GlcNAc(b1-3)Gal(b1-4)[Fuc(a1-3)]GlcNAc(b1-3)Gal(b1-4)[Fuc(a1-3)]GlcNAc
# Outline: as §1
# [26] = molecular target: Fuc(a1-3)[Gal(b1-4)]GlcNAc(b1-3)GalNAc
# Outline: as §1
# [27] = molecular target: Fuc(a1-3)[Gal(b1-4)]GlcNAc(b1-6)GalNAc
# Outline: as §1
# [28] = molecular target: Fuc(a1-3)[Gal(b1-4)]GlcNAc(b1-6)[Gal(b1-3)GlcNAc(b1-3)]Gal(b1-4)Glc
# Outline: as §1
# [29] = molecular target: Fuc(a1-3)[Gal(b1-4)]GlcNAc6S
# Outline: as §1
# [30] = molecular target: Fuc(a1-3)[Gal3S(b1-4)]Glc
# Outline: as §1
# [31] = molecular target: Fuc(a1-3)[Gal3S(b1-4)]GlcNAc
# Outline: as §1
# [32] = molecular target: Fuc(a1-3)[Gal3S(b1-4)]GlcNAc6S
# Outline: as §1
# [33] = molecular target: Fuc(a1-3)[GalNAc(b1-4)]GlcNAc
# Outline: as §1
# [34] = molecular target: Fuc(a1-3)[GalNAc(b1-4)]GlcNAc6S
# Outline: as §1
# [35] = molecular target: Fuc(a1-4)GlcNAc
# Outline: as §1
# [36] = molecular target: Fuc(b1-3)GlcNAc
# Outline: as §1
# [37] = molecular target: Gal(a1-2)Gal
# Outline: as §1
binder,measurement,setting,value
"ERGIC1-EDTA (Homo sapiens), Q969X5 (protein) MKFLVNVALVFMVVYISYIYAAAHMHHHHHHDYDIPTTENLYFQGSEVVNELYVDDPDKDSGGKIDVSLNISLPNLHCELVGLDIQDEMGRHEVGHIDNSMKIPLNNGAGCRFEGQFSINKVPGNFHVSTHSATAQPQNPDMTHVIHKLSFGDTLQVQNIHGAFNALGGADRLTSNPLASHDYILKIVPTVYEDKSGKQRYSYQYTVANKEYVAYSHTGRIIPAIWFRYDLSPITVKYTE",glycan array binding signal (z-score),[1],0.087
same,glycan array binding signal (z-score),[2],0.24
same,glycan array binding signal (z-score),[3],-0.32
same,glycan array binding signal (z-score),[4],-0.209
same,glycan array binding signal (z-score),[5],-0.903
same,glycan array binding signal (z-score),[6],0.438
same,glycan array binding signal (z-score),[7],2.25
same,glycan array binding signal (z-score),[8],0.213
same,glycan array binding signal (z-score),[9],0.601
same,glycan array binding signal (z-score),[10],0.4
same,glycan array binding signal (z-score),[11],0.33
same,glycan array binding signal (z-score),[12],0.023
same,glycan array binding signal (z-score),[13],0.399
same,glycan array binding signal (z-score),[14],1.98
same,glycan array binding signal (z-score),[15],-1.28
same,glycan array binding signal (z-score),[16],0.059
same,glycan array binding signal (z-score),[17],-0.758
same,glycan array binding signal (z-score),[18],-0.196
same,glycan array binding signal (z-score),[19],-0.323
same,glycan array binding signal (z-score),[20],-0.689
same,glycan array binding signal (z-score),[21],1.5
same,glycan array binding signal (z-score),[22],1.16
same,glycan array binding signal (z-score),[23],-0.682
same,glycan array binding signal (z-score),[24],-0.231
same,glycan array binding signal (z-score),[25],-1.38
same,glycan array binding signal (z-score),[26],-0.501
same,glycan array binding signal (z-score),[27],0.232
same,glycan array binding signal (z-score),[28],0.292
same,glycan array binding signal (z-score),[29],0.783
same,glycan array binding signal (z-score),[30],0.164
same,glycan array binding signal (z-score),[31],0.249
same,glycan array binding signal (z-score),[32],0.531
same,glycan array binding signal (z-score),[33],0.462
same,glycan array binding signal (z-score),[34],-0.543
same,glycan array binding signal (z-score),[35],-1.01
same,glycan array binding signal (z-score),[36],-0.246
same,glycan array binding signal (z-score),[37],-0.451

# In another format: entries from further up.
binder | measurement | setting | value
ERGIC1-EDTA (Homo sapiens), Q969X5 (protein) MKFLVNVALVFMVVYISYIYAAAHMHHHHHHDYDIPTTENLYFQGSEVVNELYVDDPDKDSGGKIDVSLNISLPNLHCELVGLDIQDEMGRHEVGHIDNSMKIPLNNGAGCRFEGQFSINKVPGNFHVSTHSATAQPQNPDMTHVIHKLSFGDTLQVQNIHGAFNALGGADRLTSNPLASHDYILKIVPTVYEDKSGKQRYSYQYTVANKEYVAYSHTGRIIPAIWFRYDLSPITVKYTE | glycan array binding signal (z-score) | [12] | 0.023
same | glycan array binding signal (z-score) | [14] | 1.98
same | glycan array binding signal (z-score) | [29] | 0.783
